Laboratory results taken from paper PMC4759862.
No constants are given. Whether binding was seen depends on the method and setting. Binding seen in cells or lysates may run through a third protein. Some entries that bind do so weakly or less than the wild type.

Assays:
meprin β [1] = target: T1, meprin β (UniProt Q16820); test: condition: only lysates of separately transfected cells mixed post-lysis; co-IP; control: lysates of cells separately expressing APP (L1) or meprin β (L2) mixed post-lysis, then precipitated with 9E10 or anti-meprin β antibody
T1 sequence: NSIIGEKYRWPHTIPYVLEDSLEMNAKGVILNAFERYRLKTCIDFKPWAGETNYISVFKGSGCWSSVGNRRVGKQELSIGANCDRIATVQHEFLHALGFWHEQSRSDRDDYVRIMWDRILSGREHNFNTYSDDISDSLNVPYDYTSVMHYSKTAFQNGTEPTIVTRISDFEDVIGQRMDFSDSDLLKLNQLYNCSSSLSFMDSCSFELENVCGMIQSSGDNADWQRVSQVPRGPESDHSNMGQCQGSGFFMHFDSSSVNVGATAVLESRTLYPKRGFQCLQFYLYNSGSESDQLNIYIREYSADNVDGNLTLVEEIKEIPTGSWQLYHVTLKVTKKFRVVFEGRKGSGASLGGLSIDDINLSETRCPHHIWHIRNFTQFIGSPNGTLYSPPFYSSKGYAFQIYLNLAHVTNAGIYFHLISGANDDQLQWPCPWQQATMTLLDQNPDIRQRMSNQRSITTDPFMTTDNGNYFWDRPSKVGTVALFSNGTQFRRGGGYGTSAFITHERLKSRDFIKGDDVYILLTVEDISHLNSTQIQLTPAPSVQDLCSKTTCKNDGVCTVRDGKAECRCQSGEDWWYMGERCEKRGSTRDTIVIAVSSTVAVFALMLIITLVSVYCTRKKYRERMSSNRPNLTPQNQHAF

meprin β [2] = target: T1, meprin β; test: co-IP; HEK-293T cells co-transfected with meprin β and APP695myc; NP-40 lysis buffer; 200 μg lysate with protein G sepharose and 9E10 (anti-myc) or polyclonal anti-meprin β antibody over night; Western blot

binding (meprin β [1]): no binding
binding (meprin β [2]): binds
Substance: APP695myc (myc-tagged amyloid precursor protein, APP695) (from UniProt P05067-4 18-695)
